Amino acid sequences for entries named in this document (tags omitted). A change or cut given only in a name is not applied to a line headed by its entry.
UniProt P61956: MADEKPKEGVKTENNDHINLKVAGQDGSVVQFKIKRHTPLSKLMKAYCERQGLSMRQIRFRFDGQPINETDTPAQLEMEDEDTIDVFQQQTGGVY
UniProt Q02724: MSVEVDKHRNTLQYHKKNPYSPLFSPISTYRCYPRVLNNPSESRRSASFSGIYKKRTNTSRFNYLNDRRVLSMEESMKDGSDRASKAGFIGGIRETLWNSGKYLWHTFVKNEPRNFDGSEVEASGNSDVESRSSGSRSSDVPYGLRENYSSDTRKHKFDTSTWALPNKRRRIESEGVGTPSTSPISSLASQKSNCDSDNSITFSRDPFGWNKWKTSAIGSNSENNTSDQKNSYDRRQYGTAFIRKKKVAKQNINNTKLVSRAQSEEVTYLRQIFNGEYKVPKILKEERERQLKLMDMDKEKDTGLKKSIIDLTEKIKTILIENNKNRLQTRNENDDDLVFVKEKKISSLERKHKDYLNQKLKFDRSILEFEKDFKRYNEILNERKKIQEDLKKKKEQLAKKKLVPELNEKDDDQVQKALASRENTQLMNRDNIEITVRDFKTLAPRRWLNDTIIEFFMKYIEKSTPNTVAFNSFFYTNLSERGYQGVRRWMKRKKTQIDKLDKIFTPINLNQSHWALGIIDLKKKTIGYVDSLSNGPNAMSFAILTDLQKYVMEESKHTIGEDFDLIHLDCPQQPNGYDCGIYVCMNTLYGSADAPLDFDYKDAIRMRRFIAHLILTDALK

In PMC3216068:

What was measured:
[1] = biological target: Smt3 fused to the Gal4 DNA-binding domain (S. cerevisiae) [SUMO: Q12306]; test: two-hybrid; Gal4-AD fusions of ULP1 mutants in pOAD, Gal4-BD fusion of SMT3 in pOBD, AH109 reporter strain; scored on dropout media lacking adenine (Figure 5)
[2] = biological target: SUMO2 immobilized on agarose beads (human) (UniProt P61956); test: pull-down; SUMO2 immobilised on agarose beads (Boston Biochem) incubated with nondenaturing yeast whole-cell extracts expressing GFP-tagged Ulp1(3) constructs; anti-GFP Western blot; only the target purified

Row | Substance | binding [1] | binding [2]
1 | Ulp1(3)^(D451N C580S), Gal4 activation domain fusion (from UniProt Q02724) (domain or fragment) | no binding | 
2 | GFP-tagged Ulp1(3)^(C580S)-ΔSBS (from UniProt Q02724) (domain or fragment) |  | no binding
3 | Ulp1(3)^(ts C580S), Gal4 activation domain fusion (from UniProt Q02724) (domain or fragment) | binds | 
4 | Ulp1(3)^(C580S), Gal4 activation domain fusion (from UniProt Q02724) (domain or fragment) | binds weakly | 

These are yes or no findings as the source states them, for the method shown. For some of these results: A result given as binding can be weak or reduced; the word gives no strength. For some of these results: In cells and extracts the contact can be indirect.
